The test system of series [1] is wt MBD2 displayed. The series is described as follows: flow cytometry display. The conditions noted are these: FACS display: PBS with 0.1% BSA, protein on the cell surface, protein details: AIDA-I autotransporter, label: 5' BtnTg, phycoerythrin.
For series [2], the system named is wt MBD3 displayed. The series is described as follows: flow cytometry display. Particulars: low affinity, separated from MBD2; 5mC in both strands; FACS display: PBS with 0.1% BSA; protein on the cell surface; protein details: AIDA-I autotransporter; label: 5' BtnTg, phycoerythrin.

The exact form of at least one protein or probe is not confirmed. Results from cells or extracts need not show a direct contact. A weaker result is weaker than the reference pair of the same experiment. At least one verdict rests on a figure or table, not on a statement of the authors.

Take “AAAAAAAAAAACGAAAAAAAAAAA (double strand) [C/C FACS probe]”: the binding result in series [1] is given as “binds more weakly”.
Regarding “AAAAAAAAAAACGAAAAAAAAAAA (double strand) [mC/mC FACS probe]”, the binding result is given as “binds” in series [1] (0.1% BSA block in selections, 5mC in both strands) and “binds more weakly” in series [2].

For the origin of these results see paper PMC8874921.
